Data reported in patent US20190133173A1.
No constants are given. Whether binding was seen depends on the method and setting. Binding seen in cells or lysates may run through a third protein. Some binding calls cover weakened binding; strength is not graded here. Sequences can lack the tags named with a protein.

Sequences of proteins named here, by UniProt entry; tags and fusion partners are left off. Residues count along the entry.
UniProt Q02248, residues 2-781: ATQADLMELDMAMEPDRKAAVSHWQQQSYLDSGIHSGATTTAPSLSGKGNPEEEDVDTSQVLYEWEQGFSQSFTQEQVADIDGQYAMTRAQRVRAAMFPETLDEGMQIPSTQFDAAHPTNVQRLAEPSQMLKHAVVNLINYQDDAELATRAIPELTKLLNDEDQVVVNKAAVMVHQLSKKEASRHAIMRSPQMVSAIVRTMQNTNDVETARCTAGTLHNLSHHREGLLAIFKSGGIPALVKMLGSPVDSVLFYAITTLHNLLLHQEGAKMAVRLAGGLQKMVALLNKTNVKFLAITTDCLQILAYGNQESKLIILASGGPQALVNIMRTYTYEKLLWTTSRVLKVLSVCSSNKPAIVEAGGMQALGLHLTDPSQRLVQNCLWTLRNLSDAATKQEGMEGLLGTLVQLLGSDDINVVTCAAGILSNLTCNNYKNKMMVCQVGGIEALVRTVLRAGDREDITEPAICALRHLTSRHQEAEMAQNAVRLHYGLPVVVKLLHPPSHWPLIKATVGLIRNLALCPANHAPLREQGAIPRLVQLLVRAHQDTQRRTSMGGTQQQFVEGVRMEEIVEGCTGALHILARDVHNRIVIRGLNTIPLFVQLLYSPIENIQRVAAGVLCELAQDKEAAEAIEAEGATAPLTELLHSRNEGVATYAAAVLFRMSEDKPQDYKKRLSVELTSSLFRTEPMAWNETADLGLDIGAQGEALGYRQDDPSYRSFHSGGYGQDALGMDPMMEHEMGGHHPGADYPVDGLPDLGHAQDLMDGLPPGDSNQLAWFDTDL

Biological target: T1, GFP-tagged M-cadherin (human cDNA, expressed in C2C12 cells) (human) (UniProt P55291)
T1 sequence (looked up): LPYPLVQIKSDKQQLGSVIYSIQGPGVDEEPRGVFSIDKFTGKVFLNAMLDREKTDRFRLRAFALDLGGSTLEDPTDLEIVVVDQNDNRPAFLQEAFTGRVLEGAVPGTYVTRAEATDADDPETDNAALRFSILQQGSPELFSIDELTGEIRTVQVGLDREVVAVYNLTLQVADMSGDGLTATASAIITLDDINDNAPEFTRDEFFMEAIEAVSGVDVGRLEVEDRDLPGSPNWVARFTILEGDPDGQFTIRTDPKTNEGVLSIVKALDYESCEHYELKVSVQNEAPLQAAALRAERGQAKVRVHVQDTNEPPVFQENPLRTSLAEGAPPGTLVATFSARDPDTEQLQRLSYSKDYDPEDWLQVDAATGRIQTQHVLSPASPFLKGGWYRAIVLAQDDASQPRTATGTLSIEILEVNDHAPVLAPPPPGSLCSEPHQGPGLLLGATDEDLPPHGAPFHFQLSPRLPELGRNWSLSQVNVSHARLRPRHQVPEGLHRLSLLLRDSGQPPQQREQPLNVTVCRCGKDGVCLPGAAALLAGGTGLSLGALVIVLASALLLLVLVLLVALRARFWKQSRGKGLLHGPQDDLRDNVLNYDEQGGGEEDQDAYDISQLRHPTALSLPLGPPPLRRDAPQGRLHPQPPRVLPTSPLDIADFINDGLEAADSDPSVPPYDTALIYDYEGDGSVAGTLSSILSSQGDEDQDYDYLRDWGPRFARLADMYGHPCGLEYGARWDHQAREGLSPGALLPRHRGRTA
Assay: co-immunoprecipitation from lysate of C2C12 cells transfected with GFP-tagged human M-cadherin: IP with M-cadherin antibody, Western blot with anti-β-catenin antibody, with or without 1 µg/ml recombinant Slit3

- binding: binds
Substance: β-catenin (from UniProt Q02248 2-781)
